Experimental data from publication PMC4350284.
Results are given in words; binding and its absence hold for the method and conditions named. For some of these results: In cells and extracts the contact can be indirect. Some binding calls cover weakened binding; strength is not graded here.

Amino acid sequences for entries named in this document (tags omitted). A change or cut given only in a name is not applied to a line headed by its entry. Residues count along the entry.
UniProt P42230: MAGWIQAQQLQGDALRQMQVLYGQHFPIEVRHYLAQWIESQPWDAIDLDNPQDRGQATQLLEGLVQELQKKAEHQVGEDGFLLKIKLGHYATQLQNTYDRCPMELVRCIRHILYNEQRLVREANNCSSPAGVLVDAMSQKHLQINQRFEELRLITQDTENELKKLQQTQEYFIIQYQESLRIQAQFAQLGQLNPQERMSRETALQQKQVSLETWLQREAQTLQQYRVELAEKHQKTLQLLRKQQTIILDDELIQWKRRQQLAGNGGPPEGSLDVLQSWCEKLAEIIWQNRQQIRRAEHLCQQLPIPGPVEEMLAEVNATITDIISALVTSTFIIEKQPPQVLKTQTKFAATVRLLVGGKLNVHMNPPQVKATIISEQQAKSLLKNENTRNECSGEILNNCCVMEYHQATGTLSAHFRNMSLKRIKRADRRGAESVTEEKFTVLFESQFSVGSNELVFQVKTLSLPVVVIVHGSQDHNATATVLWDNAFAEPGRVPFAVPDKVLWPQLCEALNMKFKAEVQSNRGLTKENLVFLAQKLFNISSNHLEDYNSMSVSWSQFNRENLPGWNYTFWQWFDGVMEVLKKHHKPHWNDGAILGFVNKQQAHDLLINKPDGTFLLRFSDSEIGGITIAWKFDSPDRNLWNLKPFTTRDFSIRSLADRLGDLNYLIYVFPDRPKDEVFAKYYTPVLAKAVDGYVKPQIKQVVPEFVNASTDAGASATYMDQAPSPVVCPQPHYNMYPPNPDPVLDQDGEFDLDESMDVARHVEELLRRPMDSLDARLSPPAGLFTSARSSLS
UniProt P08631, residues 22-526: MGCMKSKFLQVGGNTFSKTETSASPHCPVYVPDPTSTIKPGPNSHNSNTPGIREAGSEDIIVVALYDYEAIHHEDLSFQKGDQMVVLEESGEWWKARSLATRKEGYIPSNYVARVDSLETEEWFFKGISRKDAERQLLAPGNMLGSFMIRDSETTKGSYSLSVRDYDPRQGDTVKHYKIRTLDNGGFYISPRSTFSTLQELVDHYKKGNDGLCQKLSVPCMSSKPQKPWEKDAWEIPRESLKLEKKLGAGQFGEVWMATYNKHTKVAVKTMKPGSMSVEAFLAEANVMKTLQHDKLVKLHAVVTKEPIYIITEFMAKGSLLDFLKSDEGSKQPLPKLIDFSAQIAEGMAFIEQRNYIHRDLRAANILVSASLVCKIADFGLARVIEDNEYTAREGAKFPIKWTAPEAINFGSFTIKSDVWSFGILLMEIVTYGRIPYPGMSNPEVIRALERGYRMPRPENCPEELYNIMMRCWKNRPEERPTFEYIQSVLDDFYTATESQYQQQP

How the values were obtained:
[1] = biological target: STAT5A^R618Q-eYFP (murine) (UniProt P42230); test: co-IP; HeLa T-REx FRT cells co-transfected with STAT5A-eYFP constructs and vSrc-dsRed or Hck-dsRed constructs, 24 h; RIPA lysate; STAT5A-eYFP precipitated with anti-GFP on Protein G Sepharose over night at 4°C; blot for Src or Hck
[2] = biological target: T1, non-phosphorylated Src-peptide (activation loop, tyrosine 416); test: pull-down; 25 nmol biotinylated peptide on NeutrAvidin agarose incubated with 1 mg cleared lysate of HeLa T-REx FRT cells over night at 4°C; storage buffer 150 mM NaCl, 50 mM Tris-HCl pH 7.5, 0.5% Nonidet P-40; blot with anti-GFP; only the target purified
T1 sequence (peptide, biotinylated): RLIEDNEYTARQGAK

[3] = biological target: T2, phosphorylated Src-peptide (activation loop, phosphotyrosine 416); test: as above
T2 sequence (peptide, phosphotyrosine 416 (the Y of the peptide); biotinylated): RLIEDNEYTARQGAK

[4] = biological target: STAT5A^S710F-eYFP (murine) (UniProt P42230); test: native gel or EMSA; blue native PAGE (4-16% Bis-Tris, over night at 4°C) of native lysates (2% digitonin) of HeLa T-REx HA-EpoR cells (with Epo) or HeLa T-REx vSrc-dsRed cells (with doxycycline); dimers and monomers detected by eYFP fluorescence

Hck-dsRed (from UniProt P08631-2 1-505) (enzyme)
binding [1]: binds

STAT5A^R618Q-eYFP (from UniProt P42230 1-793)
binding [2]: no binding | binding [3]: no binding

STAT5A^S710F-eYFP (from UniProt P42230 1-793)
binding [4]: binds
